# From PMC8394784 (International Journal of Molecular Sciences, 2021)
# Strings that start with PEPTIDE1 are HELM notation: dots part the residues, brackets hold end groups and non-standard residues.
# Experiments:
# [1] = general procedure: Fmoc solid-phase peptide synthesis; Rink amide resin; Oxyma pure / DIC; details: whole synthesis
# [2] = general procedure: Fmoc solid-phase peptide synthesis; 2-chlorotrityl resin preloaded with the 1,2-amino alcohol (K6-Lol); Rink amide resin (K6-NH2); preloaded 2-chlorotrityl; Oxyma pure / DIC; details: whole synthesis, high resolution mass spectrometry, 1D NMR
substance,measurement,setting,value
PEPTIDE1{[Oct].[Aib].G.L.[Aib].G.K.L.[Aib].G.I.L.[am]}$$$$V2.0,isolated yield,[1],91%
same,final HPLC purity,[2],98%
